This series in a line: CD measurements of helical content of tUIM peptides. It is filed as physicochemical. The conditions noted are these: CD at 5° C. How it is done:
Measurements of 3 samples were collected and are shown in FIG. 2D: (1) 153 μM Rap80 tUIM alone, (2) 153 μM K63-Ub2 alone, and (3) a mixture of 153 μM Rap80 tUIM with 153 μM K63-Ub2. The contribution of Rap80 tUIM to spectrum (3) was sought, so that the helical content of the bound tUIM could be estimated. […] Therefore, the difference between spectrum (3) and spectrum (2) will give the contribution from Rap80 tUIM to the total CD spectrum of the Rap80-K63-Ub2 mixture. (A) The spectrum of unbound Rap80 [spectrum (1)] is shown here as triangles. The contribution of Rap80 to spectrum (3) was calculated as (3)−(2), and is shown here as squares. Because the mixture of Rap80 with K63-Ub2 is not at saturating concentrations, bound and unbound Rap80 are both present in the solution. The observed helical fraction (Hmix) for this complex mixture can be described by:
Where Fbound and Funbound are the fractions of the bound and unbound forms of Rap80 present in the mixture, respectively, and Hbound and Hunbound are the helical contents of the bound and unbound forms of Rap80, respectively. […] (B) Shown here is a summary of the secondary structure predictions from two methods and the corresponding Hbound values calculated as described above. […]
CD Measurements. […] Peptide concentrations were independently determined before each CD reading from absorbance measurements (fluorescein) of samples in the CD cuvette.

Changes are numbered by the printed parent chain. In names and notes the source's numbering stands.

B1: Rap80 (WT): His6-tagged human Rap80 tandem UIM peptide, linker REVNSQE, fluorescein-labeled on C121; sequence in Table 1 (protein)
peptide: PSSHHHHHHSSGLVPRGSHMTEEEQFALALKMSEQEAREVNSQEEEEEELLRKAIAESLNSCRPS
B1 returned a θ222 nm of 19245 deg cm^2 dmol^−1.

B2: Rap80 S101A: Rap80 tUIM peptide, linker REVNAQE (protein)
peptide: B1 peptide with S42A
B2 gave a θ222 nm of 20383 deg cm^2 dmol^−1.

(Values after patent publication US20110250613A1, “Arrayed Multiple Ubiquitin Binding Domains as Linkage-specific Polyubiquitin Affinity Reagents” (THE JOHNS HOPKINS UNIVERSITY, priority 2009, published 2011).)
